PubChem BioAssay AID720505, Drosophila RNAi Screening Center | 2013

Aim: 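Knock-downs that reduce calcium influx once internal stores are emptied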 (primary screen)
Cell system: Drosophila S2R+ cells
Knock-down reagent: long dsRNA against Drosophila genes
Conditions: thapsigargin (2 µM) in calcium-free buffer to empty internal stores, then 2 mM calcium added back
Measured: 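Stores emptied by 2 µM thapsigargin without calcium, then 2 mM calcium re-added; fluo-4 fluorescence followed by FLIPR in 384-well plates, per-well averaged endpoint, raw; two screen passes, some wells retested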
Direction: calcium signal and retest calcium signal: higher = more calcium entry after store depletion
Rule for the call: 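About 1500 genes called as lowering calcium entry, by varying amounts, judged against per-plate control wells with STIM1 as positive and Rho1 as negative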
Meaning of the calls: active = called as lowering calcium entry; inactive = not called
The screen tested about 20,000 reagents; below is a random part of those with a known target gene and a result. Of all reagents, about 2,100 (10%) are marked active. 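Raw plate signals without normalisation; calls rest on control-based scores that were not deposited; replicate 2 separates called from uncalled poorly.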 Reagents against one gene are numbered here. Names joined by + are all predicted targets of the reagent. Not given: the amount of reagent, the time to read-out.

| gene | reagent | calcium signal, replicate 1 | calcium signal, replicate 2 | retest calcium signal, replicate 1 | retest calcium signal, replicate 2 | Outcome |
| --- | --- | --- | --- | --- | --- | --- |
| CG10311 | 1 | 133 | 188 | – | – | inactive |
| Mpp6 | 1 | 68.8 | 167 | – | – | inactive |
| Drip | 1 | 135 | 169 | – | – | inactive |
| Mocs1 | 1 | 101 | 132 | – | – | inactive |
| Pkg21D | 1 | 164 | 224 | – | – | inactive |
| spel1 | 1 | 74.2 | 108 | – | – | inactive |
| CG8461 | 1 | 99.6 | 146 | – | – | inactive |
| CG13220 | 1 | 107 | 136 | – | – | inactive |
| Klp54D | 1 | 206 | 134 | – | – | inactive |
| Cog4 | 1 | 93.8 | 121 | – | – | inactive |
| kek5 | 1 | 346 | 149 | – | – | inactive |
| Tsf3 | 1 | 65.5 | 184 | – | – | active |
| Lipt1 + CG42837 | 1 | 61.5 | 148 | – | – | active |
| Pex16 | 1 | 129 | 92.5 | – | – | inactive |
| CG15357 | 1 | 101 | 109 | – | – | inactive |
| CG18335 | 1 | 101 | 176 | – | – | inactive |
| HDAC6 | 1 | 119 | 119 | – | – | inactive |
| Apc2 | 1 | 195 | 174 | – | – | inactive |
| holn1 | 1 | 117 | 125 | – | – | inactive |
| holn1 | 2 | 90 | 84.6 | – | – | inactive |
| CG1537 | 1 | 116 | 90.6 | – | – | inactive |
| CG12011 | 1 | 107 | 91 | – | – | inactive |
| Sras | 1 | 126 | 76 | – | – | inactive |
| mip120 | 1 | 169 | 157 | – | – | inactive |
| fipi | 1 | 165 | 98.3 | – | – | inactive |
| Ir56d | 1 | 157 | 163 | – | – | inactive |
| CG14731 | 1 | 154 | 87.2 | – | – | inactive |
| CG12024 | 1 | 61.2 | 185 | – | – | active |
| CG9222 | 1 | 72 | 137 | – | – | active |
| mRpL55 | 1 | 113 | 132 | – | – | inactive |
| CG15537 | 1 | 135 | 119 | – | – | inactive |
| lncRNA:iab4 | 1 | 120 | 224 | – | – | inactive |
| CG31301 | 1 | 88.9 | 185 | – | – | inactive |
| hzg | 1 | 101 | 129 | – | – | inactive |
| CG13727 | 1 | 98.1 | 110 | – | – | inactive |
| sand | 1 | 131 | 113 | – | – | inactive |
| agt | 1 | 152 | 180 | – | – | inactive |
| RpS27A | 1 | 183 | 140 | – | – | inactive |
| CG11470 | 1 | 171 | 153 | – | – | inactive |
| slmb | 1 | 200 | 332 | – | – | inactive |
| CG8060 | 1 | 73 | 149 | – | – | active |
| CG15385 | 1 | 127 | 162 | – | – | inactive |
| CG5080 | 1 | 136 | 259 | – | – | inactive |

Individual results from the entries so far.
CG8461, Outcome → inactive
Under “calcium signal, replicate 1”, CG31301 has 88.9
Result of Sras in “Outcome”: inactive
Pex16, calcium signal, replicate 2 → 92.5
Under “calcium signal, replicate 2”, lncRNA:iab4 shows 224

The list goes on.
| gene | reagent | calcium signal, replicate 1 | calcium signal, replicate 2 | retest calcium signal, replicate 1 | retest calcium signal, replicate 2 | Outcome |
| --- | --- | --- | --- | --- | --- | --- |
| GrlHz | 1 | 146 | 87 | – | – | inactive |
| CG14297 | 1 | 53.6 | 121 | – | – | active |
| CG11275 | 1 | 204 | 82.5 | – | – | inactive |
| jp | 1 | 102 | 88.8 | – | – | inactive |
| jp | 2 | 210 | 180 | – | – | inactive |
| nw | 1 | 153 | 104 | – | – | inactive |
| nw | 2 | 101 | 136 | – | – | inactive |
| nw | 3 | 177 | 182 | – | – | inactive |
| CG11145 | 1 | 127 | 158 | – | – | inactive |
| CG33639 | 1 | 122 | 135 | 7709 | 139 | inactive |
| CG33639 | 2 | 89.5 | 92.3 | – | – | inactive |
| PhKgamma | 1 | 172 | 114 | – | – | inactive |
| Cph | 1 | 274 | 154 | – | – | inactive |
| Pkc98E | 1 | 71 | 80.4 | – | – | inactive |
| Rpt2 | 1 | 179 | 205 | – | – | inactive |
| CG8100 | 1 | 82.2 | 117 | – | – | inactive |
| lncRNA:CR34047 | 1 | 5604 | 131 | – | – | inactive |
| lncRNA:CR34047 | 2 | 115 | 111 | – | – | inactive |
| eyg | 1 | 74.7 | 68 | – | – | active |
| eyg | 2 | 96.9 | 135 | – | – | inactive |
| Mdr49 | 1 | 97.9 | 165 | – | – | inactive |
| NUCB1 | 1 | 96.8 | 183 | – | – | inactive |
| CG14036 | 1 | 179 | 81.7 | – | – | inactive |
| Nepl3 | 1 | 80.2 | 141 | – | – | inactive |
| ND-19 | 1 | 139 | 279 | 101 | 116 | inactive |
| gish | 1 | 170 | 239 | – | – | inactive |
| CG30265 | 1 | 135 | 92.2 | – | – | inactive |
| Ubc4 | 1 | 105 | 95.7 | – | – | inactive |
| Lint-O | 1 | 122 | 122 | – | – | inactive |
| Tom40 | 1 | 48.8 | 193 | – | – | active |
| Cpr47Ef | 1 | 112 | 146 | – | – | inactive |
| Cpr47Ef | 2 | 125 | 172 | – | – | inactive |
| CG14879 | 1 | 126 | 164 | – | – | inactive |
| CG8149 | 1 | 139 | 96.8 | – | – | inactive |
| pug | 1 | 171 | 115 | – | – | inactive |
| frtz | 1 | 144 | 106 | – | – | inactive |
| CG18748 | 1 | 151 | 124 | – | – | inactive |
| CkIIbeta | 1 | 95.5 | 79.7 | – | – | inactive |
| Src64B | 1 | 87 | 50.6 | – | – | inactive |
| CG43133 | 1 | 90 | 148 | – | – | inactive |
